From patent publication US20220125891A1
Results are given in words; binding and its absence hold for the method and conditions named. Some binding calls cover weakened binding; strength is not graded here.

T1: Peptide 2 (…-NH2), biotin-conjugated (human)
T1 sequence (peptide, C-terminal amide; biotin-conjugated): AFPPREYWSEPYPLPPPTC


target: T1, Peptide 2 (…-NH2), biotin-conjugated (human); test: flow cytometry of antigen-coated streptavidin beads

Row | binding | Binder
1 | binds | REB0007 (antibody, V domains shown) VH: QEQLEESGGDLVKPEGSLTLTCTASGFSFNSRYWICWVRQAPGKGLEWIGCIVSGDSNTYYASWAKGRFTISKTSSTTVTLQMTSLTAADTATYFCARWYTSSRPGLWGPGTLVTVSS VL: DVVMTQTPASVSEPVGGTVTIKCQASQSISSYLSWYQQKPGQPPKLLIYSATNLASGVSSRFKGSRFGTEFTLTISDLECDDAATYYCQCSYYVSGFAFGGGTEVVVKG
2 | binds | REB0022 (antibody, V domains shown) VH: QEQLEESGGDLVKPEGSLTLTCTASGGSFSSRYWMCWVRQAPGKGLEWIACIVIGDRNNYYASWAKGRFTISKTSSTTVTLQMTSLTAADTATYFCARWHSSTAPSLWGPGTLVTVSS VL: DVVMTQTPASVSEPVGGTVTINCQASQSISSYLSWYQQKPGQPPKLLIYKASTLASGVSSRFKGSGSGTEFTLTISDLECADAATYYCQCSYYVSGFVFGGGTEVVVKG
3 | binds | REB0014 (antibody, V domains shown) VH: QSLEESGGGLVKPGGTLTLTCKASGIDFSSYYYMCWVRQAPGKGLEWIACIYSGDGSSYYVSWANGRFTISKTSSATVTLQMTSLTAADTATYFCARDLGNLWGPGTLVTVSS VL: QVLTQTPASVSAAVGGTVTINCQASQSVYKNSGLSWFQQKPGQSPKRLIYSASTLDSGVPSRFKGSGSGTQFTLTISDVQCDDAATYYCLGIYVCSSVDCGAFGGGTEVVVKG
